Laboratory results as given in PMC10163288.
Some of the results follow.

B1: il2ra_site1_2b5i_sap_23_mot_1f7ad80a01f6a0ac92445803fe988700_0001_000000145_0001_1_14_H_._HHH_b2_00866_0001_0000100006_0000001_0_0001_af2pred_dldesign_0_af2pred (protein)
chain: SSSSSDDDQYKELVDALLEEARTIEDPLRRRQILLLARRVAKKGGNPELIARVEAVLAELSSSSS
B2: il2ra_site2_2erj_sap_26_mot_HHH_b2_07015_000000077_0001_40_57_H_._HHH_b1_02157_0002_0000200034_0000001_0_0001_af2pred_0001_1_af2pred_swapped (protein)
chain: SSSSSDEQEEAERAASRVIELFLEGNPEEAERLLEELEKELEEAGNERLLKFVKSLLSFLSSSSS
B3: il2ra_site1_2b5i_sap_23_mot_0e5a94e4a5addaac739760efb25f0f5d_0001_000000208_0001_18_32_H_._ems_3hC_1310_0001_0001_0000100003_0000001_0_0001_af2pred_0001_af2pred … (protein)
chain: SSSSSEAHERAAKIVDELAEEFGLNAEELNLLVRLAVKLIWRGVSPEEIEEILEEFARQLSSSSS
B4: il2ra_site2_3nfp_sap_14_mot_HHH_b2_05442_af2_000000054_0001_40_54_H_._HHH_b2_08272_0001_0000300028_0000001_0_0001_af2pred_0001_1_af2pred_swapped (protein)
chain: SSSSSDERERRRAVESALRLAKRISDEEELRNALEFAKAVALAGNDPELEELVREVEEELSSSSS
B5: il2ra_site2_3nfp_normal_mot_HHH_b1_03966_000000254_0001_1_19_H_._HHH_eva_0362_af2_0001_0000200008_0000001_0 (protein)
chain: STPIEEVIKLAEEALEALLAAGLIDPEEAQEWKELLEEAEEKGDEELAHRLAFEIYKILRKHNSS
B6: il2ra_site2_2erj_normal_mot_HHH_b1_00839_000000020_0001_43_57_H_._HHH_b1_00666_0001_0000100001_0000001_0 (protein)
chain: SSSSDERTEEVSEIVARAIELFRRGNPEEARKILEEALRLAEENNDEFLARFLEFALRYASSSSS
B7: il2ra_site2_2erj_sap_22_mot_HHH_b2_07386_000000253_0001_42_56_H_._HHH_b2_01916_0001_0000100007_0000001_0_0001 (protein)
chain: SSSSSDEEFEEVAELLARAAHVRDEREFRELLKEAEELAEEANSEFAERYIRFARRHFGSSSSSS
B8: il2ra_site1_2b5i_sap_14_mot_HHH_b2_04463_000000268_0001_43_57_H_._HHH_b1_07611_0001_0000200012_0000001_0_0001_af2pred_dldesign_0_af2pred (protein)
chain: SSSSSSPEERRKEVEKLIEEAKKLEDPFERSKTLFKALWLALALKDPELVAKVKKVYDELSSSSS
B9: il2ra_site2_2erj_sap_23_mot_HHH_b1_06078_000000236_0001_23_39_H_._HHH_b2_00884_0001_0000300007_0000001_0_0001_af2pred_0001_af2pred (protein)
chain: SSSSDEEEERVEELLKQIRELYEKGDFEEVSRLLQEITEIAYKSNNPELLRLLHELLEELTSSSS
B10: il2ra_site1_3nfp_normal_mot_HHH_b1_01159_af2_000000075_0001_1_20_H_._HHH_b1_00388_af2_0001_0000200007_0000001_0_af2pred_0001_af2pred_1 (protein)
chain: SSSSDERSKRVQELLEEAARLFQNGDPEEAREVLEEALRLAEELGNPAARKFIEATLRTASSSSS
B11: il2ra_site2_3nfp_normal_mot_HHH_b2_06150_000000217_0001_39_53_H_._HHH_b1_06172_0001_0000100008_0000001_0 (protein)
chain: SSSSSEYKERIEELLEELRELLERNDEERFREVSAEIVHLVFEARDSELFMLLAELLYKFASSSS
B12: il2ra_site2_3nfp_normal_mot_HHH_b1_01086_000000225_0001_20_36_H_._HHH_b2_00915_0001_0000400033_0000001_0_af2pred_0001_1_af2pred_swapped (protein)
chain: SSSSSDEELKEEVEELLEEAKKIDDPHERFAVLAEAFTLAVENNDPELEELVRRVARELSSSSSS
B13: il2ra_site2_3nfp_normal_mot_HHH_b2_01155_000000159_0001_38_52_H_._HHH_b2_03822_0001_0000600040_0000001_0 (protein)
chain: SSSSSSEDQERVEELLERAEKTSDPEERERLLAEALRIAYEAGDSELFMLVAEVAFELRQSSSSS
B14: il2ra_site2_2erj_normal_mot_8a316d4779eb53efc793250774d75e68_0001_af2_000000043_0001_18_32_H_._HHH_b2_02886_af2_0001_0001200029_0000001_0 (protein)
chain: SSSSDEEEVEKLLEEAKKLEEEGNPEEAASVVIEAALIAARAGSPLFEEASRIFEELFRLLSSSS
B15: il2ra_site2_2erj_normal_mot_HHH_b2_05720_000000165_0001_1_18_H_._HHH_b1_08552_af2_0001_0000600018_0000001_0 (protein)
chain: SSSSSELEELARRIVEHAVEAVGLSEEQKEKLEELAEELVERGLSQEEIARELFRLALRLGSSSS
B16: il2ra_site1_2b5i_sap_12_mot_3116615af0ee64d731c1c85d8523bf51_0001_000000216_0001_15_32_H_._30473498bc9c9bc4038a1594c8f83366_0001_af2_0001_0000100002_0000001_0_0 … (protein)
chain: SSSDLRELDRFAAEVVDRLAEELGLDSEQYNLLLRVAVEVIWRGLSEEEIKEILERVAEELSSSS
B17: il2ra_site2_2erj_normal_mot_HHH_b1_07186_000000032_0001_43_57_H_._HHH_b2_05479_af2_0001_0000700043_0000001_0 (protein)
chain: SSSSDEERLELLVEIAELAHNGDLEEAERLAEELLEEAEKRGNELLVRYLELLLEDIRRASSSSS
B18: il2ra_site2_3nfp_sap_28_mot_HHH_b2_06150_000000251_0001_1_17_H_._71fa3b3ce36e4cc21c7110f2bf27d1ce_0001_af2_0001_0000200012_0000001_1_0001 (protein)
chain: SSSSSELEELLREAEELLEEGDPSEAAQVLMEASEIARERNDEEAFREIARVYELALKLYRSSSS
B19: il2ra_site1_2b5i_sap_27_mot_4bcee0fe17877636eff8393fb91a8ef2_0001_000000207_0001_16_30_H_._45a6e126aa060a182dcbb06e484dbe47_0001_1_af2_0001_0000200011_0000001_0 … (protein)
chain: SSSSSEKYDKVYELYKEALKLWKAGKKEEAKKLLEEAIKIAKELGSEKLVAELEALLERLSSSSS

Molecular target: il2ra, P01589
Assay: yeast display titration

Apparent Kd, inactive:
B1 no binding seen
B2 no binding seen
B3 no binding seen
B4 no binding seen
B5 no binding seen
B6 no binding seen
B7 no binding seen
B8 no binding seen
B9 no binding seen
B10 no binding seen
B11 no binding seen
B12 no binding seen
B13 no binding seen
B14 no binding seen
B15 no binding seen
B16 no binding seen
B17 no binding seen
B18 no binding seen
B19 no binding seen

5 neighbouring entries already listed, quoted:
Apparent Kd, inactive:
B15 no binding seen
B16 no binding seen
B17 no binding seen
B18 no binding seen
B19 no binding seen
